About 3,700 (7%) of roughly 53,000 sequences were called active.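 How the source made its calls: active means gene knockdowns whose robust z-score for IL-1 alpha signal is at least 2 or at most -2, so actives lie on both sides; inactive means the rest.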 This is one part of the list.

The assay can be described thus: Components of the Cytosolic LPS Sensing Pathway: Gene Identification via Genome-wide siRNA Screen.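 Further: robust z of the log signal after scaling to non-targeting control siRNA wells of the plate.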 Particulars: RAW264.7 macrophages, IL-1a HTRF, actives lie on both sides, screened at 100 nM (by protocol), cells primed 5 h with Pam3CSK4 first. The essentials:
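Mouse macrophage line RAW264.7 is transfected with siRNA (100 nM final), grown 48h, primed with TLR ligand Pam3CSK4 5 h and given intracellular LipidA 24 h. IL-1a in supernatant is read by HTRF and viability by luminescence.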
(TR-FRET usually uses a lanthanide donor and a delayed reading to cut background.)
On to GGCGAACUGUUCGAUUGCGTT against Vcpip1, for which the z-score is inactive: -1.01.
To GGGAAUCAAUGAAAAUGUGTT against Pcdh8 belongs inactive: -1.04.
To GGUCCUAUGGAAAAAGAAATT against Msr1 belongs inactive: -0.324; to GGUUUUCUUCAUUCUUUCCTT against Zfp512, inactive: 0.616.
On to GCUGGUCUUCUCUAUCUUATT against Olfr744, for which the z-score is inactive: 0.0651.
To GGACCCAAGAAGUUUUAUUTT against Zbbx belongs inactive: 1.3; to GGACUUUGAUCUGGAGCCATT against C1rl, inactive: -0.826; to UCCAUACAGCAUCCAGUAATT against Mup20, inactive: -0.937.
To CCACUGGACAGGAACAAAGTT against Rims1 belongs inactive: -1.2; to GGUACACAAAUGCUCGGGATT against Rnf130, inactive: 0.223.
The value for GGAACCUAACAGAGAAACATT against Prpsap2 was inactive: -0.166.
Regarding GCUUCUAGUCAACAUCCAGTT against Klf15, the z-score is active: 2.07.
To GGAGAGAAAGAACUGGAAATT against Fam78a belongs inactive: 0.357; to “CCAAGGAGCAUUCUUUGGUTT against 1700024B05Rik”, inactive: -0.0487; to GGAUAUCCCAGACCCAUCATT against Prtg, inactive: -1.42.
The value for GCACAUUGAUGCUUAAACGTT against Stimate was inactive: 0.621; that for GGCUCAGAGUACUUAAAUATT against Agmo was inactive: -1.6; that for GGCUGUCUUCAUCUUAGAUTT against Copz2 was active: -2.61.
To CCCUCCAUGGAAAUGACAUTT against Slit3 belongs active: 2.4; to UGACAUAUCUUAAAUGUGGTT against Tas2r121, inactive: -0.528; to GGUUAAAGUGUAUUUACAGTT against Fkbp14, inactive: 0.124.
For CCCAUUUUGAAGUGCUACCTT against Cyp27b1, the z-score was inactive: -0.24.
To CGACGACAUCAUAAAUUUCTT against Rapgef1 belongs inactive: 1.99; to GGGAAUGAAAAGUCAAAAGTT against Stard7, inactive: -0.047.
GGUCUAAAGUACAUCCACUTT against Mapk13: the z-score was inactive: -0.939.
The value for GGAGAAUUUACCUCCUAUUTT against Rpap3 was inactive: 0.436; that for GGUACAAACGUGUAGUAUCTT against Lrrc14 was inactive: 0.689.
For GGUGAUCAACCUGUACAAGTT against Gga1, the z-score is inactive: 1.15.
With GGUGAAUCCUUCGUGGACATT against Nat8, the z-score was inactive: -1.08.
The value for GGGAUGCUGUAGAUGGAAUTT against Olfr978 was inactive: 0.0466.
Regarding GCACUUGACAAGCAACAGUTT against Jup, the z-score is active: -2.3.
On to GGUGAUAUUAUACAUUCACTT against Rnd1, for which the z-score is inactive: -0.418.
As for GGAGGCACAGAGAUUGAAGTT against Sry, the z-score was inactive: 0.247.
To GGAAAAUGAUAGCAGACAUTT against Zfp810 belongs inactive: -1.72; to GGAACAUUUCUGGAUUGUUTT against Muc1, inactive: -0.503.
For GGAUGGAAGCACUGACUAUTT against Lyzl1, the z-score is inactive: -1.5.
The value for GCUAGUCCAACUCAUCAUUTT against Olfr430 was inactive: -0.128.
As for CGGACUCAAGCUUGUGAAATT against Syt17, the z-score is inactive: 0.782.
The value for CCUCAGAUCUUGACCCUGGTT against Lrrn4cl was inactive: -0.407; that for GCACAUUUUACCAUUGCUATT against Hcfc1 was inactive: -0.176; that for CGAAUUGGAUAAUACCCAUTT against Tpte was inactive: 0.0431.
The value for GCACCUAUACAACCUCGUGTT against Nisch was inactive: 0.402; that for GCAUGAUCAGUCAGCACUATT against Nr1d2 was inactive: -1.29; that for GCUGCCCUGAAGGAUAUACTT against Grn was inactive: 0.24.
The value for GGGCAACAUUCUUCAGAAUTT against Defb5 was inactive: 1.87; that for GGUUCUUUAAUGGGUUAUGTT against Tpd52l2 was inactive: -0.0253.
For CGUGGAGCUACCAUAUAGGTT against Mob3b, the z-score is inactive: 0.581.
To CCCUUACGACUUGGCUUUGTT against Atp6v0a1 belongs inactive: -0.131; to GGGAGAAGAUAUAAAAACUTT against Krt20, inactive: 1.52; to GCUAACAAAGAUUCACCCATT against Aspn, inactive: -0.742.
As to GCAGUACAUAGACAAGUUATT against Ccdc88c, the z-score was inactive: -0.0122.
On to GGGUGCAGUGUUGUUUAUATT against Septin7, for which the z-score is inactive: -0.0489.
The value for GCGGUUCUUUUCAGAGCACTT against Fbxo21 was inactive: 0.363; that for GUCAUAAUGAGUCAUAGAATT against Olfr149 was inactive: -1.02.
To CCUACAAUGAUUUUCUCAUTT against Impdh2 belongs inactive: 0.982; to GGAAGAGUUACAGUUGAUUTT against Rcbtb2, inactive: -0.282; to GGAGUAUUACCUGGUUAAGTT against Suv39h1, inactive: -1.18.
To GGCAUAGCUUGGAAUGGAATT against Npas2 belongs inactive: -0.258.
Take GGGUUCACAUGGCAUAGUCTT against Zfp1: the z-score is inactive: -0.0137.
To GGGAAUGAUUAAGCUAGCCTT against Acvr1b belongs inactive: 1.22; to GGUAAAGGUGGCUUUGAGATT against Olfr975, inactive: -0.919; to GGUGAUCAUGGCAAGAUGGTT against Fgf3, inactive: -0.791.
With GGAGCACAUGUCCUACAUCTT against Wnt5b, the z-score is inactive: -0.199.
To GCCAGUGUUCAACUCAUGCTT against Trmt1l belongs inactive: 1.04; to GGUCUUCAGAAUCCUCAAUTT against Ap1g2, inactive: -0.4.
The value for GGACACUGCGCAAGACUUCTT against Trim35 was inactive: 0.506; that for GGAAGUAUGGAAGUCAAGUTT against Defb9 was inactive: 0.0197; that for GCAGUAACGAGGUUUUGAUTT against Rbm48 was inactive: -1.43.
As for GGAAAAUGUCCAUUACUUUTT against Acad9, the z-score was inactive: 1.28.
The value for GGCACAUUCAUGCAAUAAATT against Ctla2a was inactive: -0.87; that for GGCCAUCUCCUUCAACUAUTT against Ugt2a1 was inactive: 1.24.
The value for GCGGCCUGUGAGAGUUUAUTT against Pcyt1a was active: 3.4; that for GGUCAAGUCAAGAGUGAGATT against BC048562 was inactive: 0.2; that for CCUUCGAUAAGAAUUACAATT against Rab34 was inactive: 0.0182.
To GGCCAAAGUUUACCUUCUATT against Iars belongs inactive: -1.86; to GGGUUCCAGAUACUUUCUUTT against Zmym3, inactive: -1.82.
Regarding GGAGAUCUUUCACAUGACCTT against Hcn3, the z-score was inactive: -0.573.
To GGUGAAGAGUGAUUUUAAUTT against Il10 belongs inactive: 1.03; to GGUUGUGUGUCUGUUUGGUTT against Olfr1012, inactive: 1.29; to GAACUUUUUUUCUGUGAACTT against Olfr175, inactive: -1.58.
The value for “GGAACAGGAGAAUGACAUCTT against D5Ertd579e” was inactive: -1.25.
To GCCAUCUGGGUUUUGAUUGTT against AF067061 belongs inactive: -0.233; to GGAAGUGAGUCAGAGCUCATT against Cdc42ep3, inactive: 1.14.
For CCGCCGAUCUACUAGUGGUTT against Slc6a2, the z-score is inactive: 0.46.
The value for CCUUUCAUACUUACAUCCUTT against Rxfp4 was inactive: 1.47; that for “GCUGGAAGGAGGAACCAAGTT against 1810037I17Rik” was inactive: -0.138.
The value for GCUAUAUGUACCCUAGCCATT against H2aj was active: 2.26; that for CCGAAGCUCUGUUUUGAACTT against Hdac9 was inactive: 0.118.
In the case of GCACGCACACUUAUGAUACTT against Meox2, the z-score was inactive: 0.13.
The value for GGCUCAUUGGACAUAUAUGTT against Casp8ap2 was inactive: -1.77.
Turning to GCCGGAUUCAUUGAAAGCATT against Eif2ak3, the z-score is inactive: -0.284.
To CCGAUUCUUAGAAAUGUUCTT against Olfr692 belongs inactive: -0.791.
To CCUGAGAGUAUUCACCAGCTT against Fbp2 belongs inactive: 0.572; to GGAUCAUCAAAGACGACAUTT against Prss34, inactive: 0.499.
To GGUGACAAGAGGUUUUGCUTT against Idh3a belongs inactive: -1.31.
GGUUGAGUUCCGAUCCCAUTT against Gip: the z-score was inactive: 0.954.
To GGCAACAGCCCAGAAAUUCTT against Klhl31 belongs inactive: -0.492.
The value for GCUGAUGGACAAAUUCCACTT against Rapgef1 was inactive: 0.505; that for CCCGACGUAGGAUCUUUGATT against Ncdn was inactive: -1.36; that for GCCUCACUCAGCAAAAGGATT against Ttc9c was active: -2.09.
In the case of GGAUCAGAGAAGGAAAAAATT against Hspa12a, the z-score is inactive: -1.98.
To “GGCUUGACCUGCGUCUUCATT against 1700001P01Rik” belongs inactive: 0.736.
To GGAUUUUUCUUUUGAGCGATT against Vegfd belongs inactive: 0.0288; to GCUCCAACUACAUUGACUATT against Olfr1410, inactive: -0.396.
To GGAAAGACAUGAUACUGUCTT against Nr1i3 belongs inactive: 1.6.
CGUGUACAAGACCAACAACTT against Scg2: the z-score is inactive: 0.523.
The value for GACUUUCAAUACUGUGAUUTT against H2-M10.2 was inactive: -1.66.

For the origin of these results see PubChem BioAssay AID1508600 (Functional Genomics Laboratory (NCATS/FGL), 2020).
